Results as given in PMC7225324.
These are yes or no findings as the source states them, for the method shown. In cells and extracts the contact can be indirect. Some results given as binding are weak or reduced against the parent protein; the word gives no strength. Sequences can lack the tags named with a protein.

Amino acid sequences for entries named in this document (tags omitted).
UniProt P62136: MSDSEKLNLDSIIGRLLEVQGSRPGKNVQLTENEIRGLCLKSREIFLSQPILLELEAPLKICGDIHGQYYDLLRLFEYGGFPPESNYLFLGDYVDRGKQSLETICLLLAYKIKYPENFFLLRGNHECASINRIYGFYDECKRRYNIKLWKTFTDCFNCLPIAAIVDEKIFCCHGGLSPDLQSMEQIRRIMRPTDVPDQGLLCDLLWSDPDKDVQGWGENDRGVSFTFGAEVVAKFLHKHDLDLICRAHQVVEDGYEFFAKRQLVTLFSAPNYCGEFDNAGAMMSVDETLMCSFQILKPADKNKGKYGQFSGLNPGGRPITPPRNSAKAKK

Target: T1, PCDH7 isoform A, 3×Flag-tagged (pcDNA3.1-PCDH7-A-3×Flag) (human (cDNA from MDA-MB-436 cells)) (UniProt O60245)
T1 sequence: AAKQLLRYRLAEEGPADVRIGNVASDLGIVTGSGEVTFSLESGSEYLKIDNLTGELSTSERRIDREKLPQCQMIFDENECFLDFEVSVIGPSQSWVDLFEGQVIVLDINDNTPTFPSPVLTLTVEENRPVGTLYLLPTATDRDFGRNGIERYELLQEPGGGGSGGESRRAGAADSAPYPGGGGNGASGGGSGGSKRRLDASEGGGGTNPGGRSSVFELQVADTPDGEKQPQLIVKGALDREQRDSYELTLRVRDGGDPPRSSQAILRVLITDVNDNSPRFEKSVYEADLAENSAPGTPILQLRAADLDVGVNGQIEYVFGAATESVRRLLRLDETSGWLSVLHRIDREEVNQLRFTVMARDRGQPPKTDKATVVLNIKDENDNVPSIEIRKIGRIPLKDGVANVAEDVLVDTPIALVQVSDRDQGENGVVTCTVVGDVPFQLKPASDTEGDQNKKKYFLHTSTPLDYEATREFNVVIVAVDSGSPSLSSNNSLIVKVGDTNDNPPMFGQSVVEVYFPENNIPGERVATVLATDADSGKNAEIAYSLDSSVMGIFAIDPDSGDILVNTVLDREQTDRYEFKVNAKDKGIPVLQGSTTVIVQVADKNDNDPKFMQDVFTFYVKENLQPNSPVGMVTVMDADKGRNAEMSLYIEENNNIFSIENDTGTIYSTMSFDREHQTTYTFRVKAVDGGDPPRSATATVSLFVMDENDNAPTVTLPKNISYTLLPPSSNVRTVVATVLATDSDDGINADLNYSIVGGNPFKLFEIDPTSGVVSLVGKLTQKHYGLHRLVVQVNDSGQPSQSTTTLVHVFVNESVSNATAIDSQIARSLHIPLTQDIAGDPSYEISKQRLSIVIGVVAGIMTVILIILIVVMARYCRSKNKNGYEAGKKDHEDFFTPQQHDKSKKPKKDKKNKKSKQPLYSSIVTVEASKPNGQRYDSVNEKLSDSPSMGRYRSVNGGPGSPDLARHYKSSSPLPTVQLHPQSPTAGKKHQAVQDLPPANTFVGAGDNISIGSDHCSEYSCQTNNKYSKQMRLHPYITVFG
Experiment: co-IP; overexpressed proteins in transfected HEK293FT cells; IP lysis buffer (20 mM Tris, 0.1 M NaCl, 0.1% NP40, 5 mM EDTA, pH 8); anti-Flag-Tag antibody and protein A/G agarose, 4°C overnight; western blot

binding: binds
Substance: mCherry-tagged PP1α (plasmid pmCherry-PP1α-N1) (from UniProt P62136 1-330) (enzyme)
